Measurements reported in PubChem BioAssay AID1671195 (Yale University, 2021)

Purpose: 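Knockdowns that increase or decrease uptake of fluorescent LDL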 (primary screen)
System: human Huh7 hepatoma cells
Reagents: siRNA pool against human genes, 18 nM
Time to read-out: about 2 to 2.5 days of knockdown, then 8 h LDL uptake
Treatment: DiI-labelled LDL at 30 µg/ml for 8 h, in lipoprotein-deficient serum medium
Read-out: 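Per-cell DiI-LDL intensity by automated imaging; well means scaled to the plate median and given as a robust z-score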
Direction: robust z-score: higher = more LDL uptake after knockdown
Active means: 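Active when two or more replicates show a robust z-score above 2 or below -2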
The deposit covers about 22,000 reagents; this is a random part of them. Of all reagents, about 1,510 (6.9%) are marked active. 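Active includes knockdowns raising or lowering LDL uptake; positive z-scores mean more uptake, negative mean less.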 Reagent sequences are not shown.

| gene symbol | robust z-score, replicate 1 | robust z-score, replicate 2 | robust z-score, replicate 3 | Call |
| --- | --- | --- | --- | --- |
| ARB2A (GeneID 83989) | 0.196 | -0.0768 | 1.15 | inactive |
| MPHOSPH10 (GeneID 10199) | -0.624 | -0.737 | -0.813 | inactive |
| PLLP (GeneID 51090) | -0.00648 | 1.19 | 0.254 | inactive |
| RHOD (GeneID 29984) | 0.281 | -0.353 | 0.478 | inactive |
| PRKD3 (GeneID 23683) | -0.536 | -0.767 | -0.142 | inactive |
| CSNK1G3 (GeneID 1456) | -0.584 | -1.4 | -0.596 | inactive |
| DIPK1A (GeneID 388650) | 0.426 | 0.562 | 0.896 | inactive |
| SLC35D3 (GeneID 340146) | -0.503 | -0.688 | -0.303 | inactive |
| EPCIP (GeneID 56245) | -0.94 | -1.95 | -0.776 | inactive |
| NUP37 (GeneID 79023) | 0.668 | -0.042 | 1.22 | inactive |
| KCTD16 (GeneID 57528) | -0.77 | -1.04 | -1.13 | inactive |
| ATP5PDP3 (GeneID 138864) | 1.32 | 1.62 | 1.72 | inactive |
| LOC387992 (retired record) (GeneID 387992) | -1.04 | -0.709 | -0.722 | inactive |
| CDC34 (GeneID 997) | 1.23 | -0.42 | -0.558 | inactive |
| CCNYL1 (GeneID 151195) | -1.65 | -2 | -1.26 | inactive |
| NRSN1 (GeneID 140767) | 0.41 | -0.566 | -0.045 | inactive |
| SLC29A3 (GeneID 55315) | -1.35 | -1.71 | -1.31 | inactive |
| LOC441496 (retired record) (GeneID 441496) | -1.83 | -2.13 | -1.84 | inactive |
| TMPRSS11D (GeneID 9407) | 0.0092 | -0.402 | -0.258 | inactive |
| ROBO1 (GeneID 6091) | 0.448 | 0.224 | 1.53 | inactive |
| ZNF475 (GeneID 100505841) | 0.578 | 0.589 | 1.38 | inactive |
| ZNF692 (GeneID 55657) | -0.551 | -0.494 | 0.196 | inactive |
| SLC27A5 (GeneID 10998) | 0.199 | 0.347 | -0.902 | inactive |
| STEAP1 (GeneID 26872) | 0.204 | -1.37 | -0.0894 | inactive |
| CGGBP1 (GeneID 8545) | 1.31 | -0.44 | 1.63 | inactive |
| ALG13 (GeneID 79868) | 0.591 | 1.15 | 1.16 | inactive |
| FAM194C (GeneID 84077) | -0.543 | 0.15 | 0.414 | inactive |
| AKR7A3 (GeneID 22977) | -0.379 | 0.165 | 0.256 | inactive |
| PRKCA (GeneID 5578) | 0.617 | 1.21 | -0.23 | inactive |
| ABTB2 (GeneID 25841) | 2.94 | 3.93 | 6.04 | active |
| H1-8 (GeneID 132243) | -0.758 | -1.03 | -0.0569 | inactive |
| ZNF534 (GeneID 147658) | 0.0121 | 0.306 | 0.0229 | inactive |
| WDR6 (GeneID 11180) | -1.28 | -2.27 | -1.09 | inactive |
| KRT6B (GeneID 3854) | 3.44 | 2.42 | 3.99 | active |
| C11orf52 (GeneID 91894) | -0.959 | -0.644 | -0.932 | inactive |
| PTPRS (GeneID 5802) | -0.0355 | -0.416 | 0.562 | inactive |
| ARHGEF25 (GeneID 115557) | -0.271 | 1.54 | 0.674 | inactive |

Part of the list above in another layout.
KCTD16 (GeneID 57528) → robust z-score, replicate 1: -0.77; robust z-score, replicate 2: -1.04; robust z-score, replicate 3: -1.13; Call: inactive
ATP5PDP3 (GeneID 138864) → robust z-score, replicate 1: 1.32; robust z-score, replicate 2: 1.62; robust z-score, replicate 3: 1.72; Call: inactive
LOC387992 (retired record) (GeneID 387992) → robust z-score, replicate 1: -1.04; robust z-score, replicate 2: -0.709; robust z-score, replicate 3: -0.722; Call: inactive
CDC34 (GeneID 997) → robust z-score, replicate 1: 1.23; robust z-score, replicate 2: -0.42; robust z-score, replicate 3: -0.558; Call: inactive
CCNYL1 (GeneID 151195) → robust z-score, replicate 1: -1.65; robust z-score, replicate 2: -2; robust z-score, replicate 3: -1.26; Call: inactive
NRSN1 (GeneID 140767) → robust z-score, replicate 1: 0.41; robust z-score, replicate 2: -0.566; robust z-score, replicate 3: -0.045; Call: inactive
SLC29A3 (GeneID 55315) → robust z-score, replicate 1: -1.35; robust z-score, replicate 2: -1.71; robust z-score, replicate 3: -1.31; Call: inactive
LOC441496 (retired record) (GeneID 441496) → robust z-score, replicate 1: -1.83; robust z-score, replicate 2: -2.13; robust z-score, replicate 3: -1.84; Call: inactive
TMPRSS11D (GeneID 9407) → robust z-score, replicate 1: 0.0092; robust z-score, replicate 2: -0.402; robust z-score, replicate 3: -0.258; Call: inactive

The list goes on.
| gene symbol | robust z-score, replicate 1 | robust z-score, replicate 2 | robust z-score, replicate 3 | Call |
| --- | --- | --- | --- | --- |
| MSTN (GeneID 2660) | 0.317 | 3.09 | 1.74 | inactive |
| SLC37A2 (GeneID 219855) | -1.16 | -1.09 | -1.09 | inactive |
| LOC100505502 (GeneID 100505502) | -0.0611 | 0.264 | 0.0451 | inactive |
| LIN28A (GeneID 79727) | -0.762 | -0.204 | -0.015 | inactive |
| SLC2A13 (GeneID 114134) | -0.271 | -0.521 | -0.137 | inactive |
| PGA5 (GeneID 5222) | -1.41 | -0.639 | -0.664 | inactive |
| SLC25A4 (GeneID 291) | 0.621 | -0.103 | -0.695 | inactive |
| LOC389143 (retired record) (GeneID 389143) | 1.03 | 0.439 | 0.879 | inactive |
| CAB39 (GeneID 51719) | 0.148 | 0.885 | 0.709 | inactive |
| BRI3 (GeneID 25798) | -0.668 | -2.27 | -0.26 | inactive |
| SULT2B1 (GeneID 6820) | -0.776 | -0.338 | -0.647 | inactive |
| VDAC2 (GeneID 7417) | 3.32 | 3.46 | 1.45 | active |
| FANCC (GeneID 2176) | -1.54 | -0.137 | -1.53 | inactive |
| PARP4 (GeneID 143) | -0.981 | -0.958 | -0.334 | inactive |
| ZNF710 (GeneID 374655) | 0.916 | 1.2 | 1.45 | inactive |
| LOC401051 (retired record) (GeneID 401051) | 0.0105 | -0.0137 | -0.271 | inactive |
| CUL4B (GeneID 8450) | 0.401 | 1.57 | 0.329 | inactive |
| LOC388655 (retired record) (GeneID 388655) | -1.45 | -0.772 | -1.29 | inactive |
| GUCA1A (GeneID 2978) | 0.149 | 2.61 | 0.152 | inactive |
| ILF2 (GeneID 3608) | -2.2 | -1.58 | -2.75 | active |
| TSPAN15 (GeneID 23555) | -1.24 | -1.36 | -1.21 | inactive |
| TKTL2 (GeneID 84076) | 0.548 | 0.0277 | 0.0758 | inactive |
| ALB (GeneID 213) | 0.778 | -0.316 | 0.0515 | inactive |
| ZBTB43 (GeneID 23099) | -0.741 | -0.265 | -0.282 | inactive |
| STX17 (GeneID 55014) | -0.186 | 2.39 | -1.03 | inactive |
| TBK1 (GeneID 29110) | 0.145 | -0.0357 | 0.551 | inactive |
| BAK1 (GeneID 578) | -0.368 | -0.324 | -1.08 | inactive |
| PCDHA10 (GeneID 56139) | 0.295 | 0.261 | 0.0827 | inactive |
| DUSP29 (GeneID 338599) | 1.33 | 1.73 | 1.84 | inactive |
| RWDD2B (GeneID 10069) | 2.85 | 1.98 | 1.48 | active |
| DRC10 (GeneID 115811) | -0.308 | 0.106 | -0.337 | inactive |
| MAP7D1 (GeneID 55700) | -1.24 | -1.6 | 2.16 | inactive |
| RPL10A (GeneID 4736) | -1.45 | -1.75 | -1.45 | inactive |
| NEMF (GeneID 9147) | -1.47 | -1.13 | -1.46 | inactive |
| LELP1 (GeneID 149018) | -0.151 | 0.0769 | 0.052 | inactive |
| LOC441927 (retired record) (GeneID 441927) | -0.545 | -0.106 | -0.562 | inactive |
| FGG (GeneID 2266) | 1.89 | -0.32 | 0.31 | inactive |
| AP2S1 (GeneID 1175) | -1.44 | -1.06 | -1.64 | inactive |
| AGAP3 (GeneID 116988) | 3.68 | 1.32 | 1.65 | inactive |
| ANKMY2 (GeneID 57037) | -0.192 | -0.463 | -0.646 | inactive |
| RAC2 (GeneID 5880) | 2.1 | 2.02 | 1.08 | active |
| MARK1 (GeneID 4139) | -0.0602 | -0.376 | -0.117 | inactive |
| LINC01114 (GeneID 284998) | 1.31 | 1.49 | 0.628 | inactive |
| WIPI1 (GeneID 55062) | 0.684 | 1.09 | 1.51 | inactive |
| GATB (GeneID 5188) | 0.431 | -0.0532 | 0.278 | inactive |
| LOC401357 (GeneID 401357) | 0.0351 | -0.156 | -0.475 | inactive |
| EIF3KP1 (GeneID 134505) | -1.85 | -0.791 | -0.834 | inactive |
| KHDC3L (GeneID 154288) | -0.195 | 0.66 | -0.125 | inactive |
| FAM177A1 (GeneID 283635) | 3.28 | 1.97 | 1.75 | active |
| FANCI (GeneID 55215) | -0.998 | -0.107 | 0.302 | inactive |
